Laboratory results: PubChem BioAssay AID1259308 (NCATS, 2017)
In all, the deposit lists about 59,000 reagents; below is a random part of them. Over the whole deposit, about 1,510 (2.6%) are marked active. 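Calls use total luciferase alone and ignore viability, so some active siRNAs may act by altering cell number.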 Reagents against one gene are numbered here. Not all columns of the deposit are shown.

Aim: 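Candidate targets for better recombinant protein yield in mammalian cells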 (primary screen)
Cell system: human HEK293 embryonic kidney cells stably expressing firefly luciferase (HEK-CMV-Luc2-Hygro)
Reagents: single siRNA against human genes, 0.8 pmol siRNA per well
Timing: 72 h
Measured: 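Reporter luminescence and viable-cell signal on separate replicate plates, given as percent of non-targeting control and median/MAD z-scores, plus per-cell luciferase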
Direction: total luciferase, z-score and total luciferase, % of control: higher = more reporter protein produced
Active means: 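An siRNA counts as active if its total luciferase robust z-score exceeds 3; genes with two or more such siRNAs out of three were retested with fresh siRNAs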
Calls: active = raised luciferase; inactive = no rise

How did the screen score HHIPL1 #1?
total luciferase, z-score: 1.4; total luciferase, % of control: 110; outcome: inactive

For HHIPL1 #2, what does the deposit list?
total luciferase, z-score: 2.78; total luciferase, % of control: 137; outcome: inactive

For HHIPL1 #3, how do the results read?
total luciferase, z-score: -0.799; total luciferase, % of control: 66; outcome: inactive

How did the screen score PIK3AP1 #1?
total luciferase, z-score: 0.48; total luciferase, % of control: 91.4; outcome: inactive

For PIK3AP1 #2, what was measured?
total luciferase, z-score: 0.216; total luciferase, % of control: 86.2; outcome: inactive

Which result is listed for PIK3AP1 #3?
total luciferase, z-score: 0.192; total luciferase, % of control: 85.7; outcome: inactive

What did the screen give for OR2A14 #1?
total luciferase, z-score: 0.975; total luciferase, % of control: 101; outcome: inactive

What did the screen give for OR2A14 #2?
total luciferase, z-score: 0.675; total luciferase, % of control: 95.3; outcome: inactive

With OR2A14 #3, how do the results read?
total luciferase, z-score: -0.384; total luciferase, % of control: 74.2; outcome: inactive

With MSH5 #1, what was measured?
total luciferase, z-score: 0.445; total luciferase, % of control: 90.7; outcome: inactive

Which result is listed for MSH5 #2?
total luciferase, z-score: -1.57; total luciferase, % of control: 50.7; outcome: inactive

With MSH5 #3, what does the deposit list?
total luciferase, z-score: 1.08; total luciferase, % of control: 103; outcome: inactive

For POLR2K #1, what does the deposit list?
total luciferase, z-score: -1.88; total luciferase, % of control: 44.5; outcome: inactive

With POLR2K #2, how do the results read?
total luciferase, z-score: 0.256; total luciferase, % of control: 87; outcome: inactive

What did the screen give for POLR2K #3?
total luciferase, z-score: -2.26; total luciferase, % of control: 37; outcome: inactive

For MTMR11 #1, what was measured?
total luciferase, z-score: -0.15; total luciferase, % of control: 78.9; outcome: inactive

Which result is listed for MTMR11 #2?
total luciferase, z-score: -0.184; total luciferase, % of control: 78.2; outcome: inactive

How did the screen score MTMR11 #3?
total luciferase, z-score: 1.84; total luciferase, % of control: 119; outcome: inactive

For SPON2 #1, how do the results read?
total luciferase, z-score: 0.15; total luciferase, % of control: 84.9; outcome: inactive

What did the screen give for SPON2 #2?
total luciferase, z-score: -0.682; total luciferase, % of control: 68.3; outcome: inactive

Which result is listed for SPON2 #3?
total luciferase, z-score: 1.7; total luciferase, % of control: 116; outcome: inactive

4 of these entries in another layout:
gene	reagent no.	total luciferase, z-score	total luciferase, % of control	outcome
MSH5	2	-1.57	50.7	inactive
MSH5	3	1.08	103	inactive
POLR2K	1	-1.88	44.5	inactive
POLR2K	2	0.256	87	inactive

Continued.
What did the screen give for STX8 #1?
total luciferase, z-score: -0.276; total luciferase, % of control: 76.4; outcome: inactive

With STX8 #2, how do the results read?
total luciferase, z-score: 0.961; total luciferase, % of control: 101; outcome: inactive

For STX8 #3, how do the results read?
total luciferase, z-score: 3.6; total luciferase, % of control: 154; outcome: active

With CCT6A #1, how do the results read?
total luciferase, z-score: 3.81; total luciferase, % of control: 158; outcome: active

With CCT6A #2, what was measured?
total luciferase, z-score: 2.14; total luciferase, % of control: 124; outcome: inactive

How did the screen score CCT6A #3?
total luciferase, z-score: 0.447; total luciferase, % of control: 90.8; outcome: inactive

What did the screen give for SPECC1L #1?
total luciferase, z-score: 3.38; total luciferase, % of control: 149; outcome: active

What is on record for SPECC1L #2?
total luciferase, z-score: 1.22; total luciferase, % of control: 106; outcome: inactive

What is on record for SPECC1L #3?
total luciferase, z-score: 0.0365; total luciferase, % of control: 82.6; outcome: inactive

For HIPK4 #1, what was measured?
total luciferase, z-score: 0.649; total luciferase, % of control: 94.8; outcome: inactive

With HIPK4 #2, what was measured?
total luciferase, z-score: 0.578; total luciferase, % of control: 93.4; outcome: inactive

Which result is listed for HIPK4 #3?
total luciferase, z-score: -0.361; total luciferase, % of control: 74.7; outcome: inactive
